{"source": "PubChem BioAssay AID720710 (VTT Finland, 2013)", "test": "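siRNAs sensitising CCNE1-overexpressing U-2 OS cells to replication stress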 (primary screen)", "cell system": "human U-2 OS bone cancer cells, parental and a cyclin E (CCNE1) overexpressing line", "reagents": "single siRNA against human genes, 1 µM siRNA in the printed spot mix", "time to read-out": "67 h", "challenge": "half the arrays: hydroxyurea 2 mM for 16 h, then 3 h recovery; other arrays untreated", "read-out": "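EdU click signal imaged per DAPI-stained nucleus at 67 h; each spot divided by its subgrid median, then z-scored relative to non-targeting control spots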", "scale": "EdU z-score, cyclin E line, hydroxyurea: higher = more DNA synthesis than non-targeting controls", "note": "Shown is one part, drawn at random, of about 1,380 deposited reagents. 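One array per condition without replicates; hydroxyurea arrays received 2 mM for 16 h plus 3 h recovery.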 The numbers tell different reagents against one gene apart. Further read-outs or replicates are left out here."}
{"target":"TOPBP1","reagent no.":1,"EdU z-score, cyclin E line, hydroxyurea":0.755}
{"target":"TOPBP1","reagent no.":2,"EdU z-score, cyclin E line, hydroxyurea":0.805}
{"target":"SESN2","reagent no.":1,"EdU z-score, cyclin E line, hydroxyurea":0.778}
{"target":"SESN2","reagent no.":2,"EdU z-score, cyclin E line, hydroxyurea":0.781}
{"target":"PRIMPOL","reagent no.":1,"EdU z-score, cyclin E line, hydroxyurea":-1.08}
{"target":"PRIMPOL","reagent no.":2,"EdU z-score, cyclin E line, hydroxyurea":-0.261}
{"target":"CBX2","reagent no.":1,"EdU z-score, cyclin E line, hydroxyurea":0.462}
{"target":"CBX2","reagent no.":2,"EdU z-score, cyclin E line, hydroxyurea":0.808}
{"target":"DIAPH1","reagent no.":1,"EdU z-score, cyclin E line, hydroxyurea":-1.75}
{"target":"DIAPH1","reagent no.":2,"EdU z-score, cyclin E line, hydroxyurea":-0.445}
{"target":"HMGB2","reagent no.":1,"EdU z-score, cyclin E line, hydroxyurea":-0.565}
{"target":"HMGB2","reagent no.":2,"EdU z-score, cyclin E line, hydroxyurea":1.33}

Records listed so far whose target name starts with D or d:
{"target":"DIAPH1","reagent no.":1,"EdU z-score, cyclin E line, hydroxyurea":-1.75}
{"target":"DIAPH1","reagent no.":2,"EdU z-score, cyclin E line, hydroxyurea":-0.445}

Further reagents:
{"target":"TRIM2","reagent no.":1,"EdU z-score, cyclin E line, hydroxyurea":-1.89}
{"target":"TRIM2","reagent no.":2,"EdU z-score, cyclin E line, hydroxyurea":-0.0442}
{"target":"LOC728849","reagent no.":1,"EdU z-score, cyclin E line, hydroxyurea":-3.49}
{"target":"LOC728849","reagent no.":2,"EdU z-score, cyclin E line, hydroxyurea":0.638}
{"target":"PPP1R15A","reagent no.":1,"EdU z-score, cyclin E line, hydroxyurea":-0.0849}
{"target":"PPP1R15A","reagent no.":2,"EdU z-score, cyclin E line, hydroxyurea":0.1}
{"target":"RNF2","reagent no.":1,"EdU z-score, cyclin E line, hydroxyurea":-0.0135}
{"target":"RNF2","reagent no.":2,"EdU z-score, cyclin E line, hydroxyurea":3.05}
{"target":"USP1","reagent no.":1,"EdU z-score, cyclin E line, hydroxyurea":-1.79}
{"target":"USP1","reagent no.":2,"EdU z-score, cyclin E line, hydroxyurea":2.17}
{"target":"RAD50","reagent no.":1,"EdU z-score, cyclin E line, hydroxyurea":-1.33}
{"target":"RAD50","reagent no.":2,"EdU z-score, cyclin E line, hydroxyurea":1.36}
{"target":"TDP1","reagent no.":1,"EdU z-score, cyclin E line, hydroxyurea":-1.21}
{"target":"TDP1","reagent no.":2,"EdU z-score, cyclin E line, hydroxyurea":1.28}
{"target":"NEDD1","reagent no.":1,"EdU z-score, cyclin E line, hydroxyurea":0.0187}
{"target":"NEDD1","reagent no.":2,"EdU z-score, cyclin E line, hydroxyurea":0.715}
{"target":"MSH3","reagent no.":1,"EdU z-score, cyclin E line, hydroxyurea":-2.32}
{"target":"MSH3","reagent no.":2,"EdU z-score, cyclin E line, hydroxyurea":0.201}
{"target":"ACHE","reagent no.":1,"EdU z-score, cyclin E line, hydroxyurea":-1.79}
{"target":"ACHE","reagent no.":2,"EdU z-score, cyclin E line, hydroxyurea":0.456}
